Results taken from PubChem BioAssay AID485298 (National Center for Advancing Translational Sciences (NCATS), 2010).
Hit rate of the full screen: of about 320,000 compounds, about 740 (0.23%) were called active. Inconclusive means that the source gave no clear call. Such entries were picked first, then a sample of the others. Calls come from the whole dose curve; as a rule, active = well fitted activation curve with a large enough effect; inconclusive = small, poorly fitted or top-dose-only effect; inactive = no such curve, though single readings can be large or run the other way. Potencies of inconclusive entries are doubtful fits and often do not repeat.

Test: qHTS Assay for Small Molecule Inhibitors of Mitochondrial Division or Activators of Mitochondrial Fusion; note: nearly all actives have a fitted effect of over 45% in size
Details: S. cerevisiae fusion-defective mutant growth rescue, CellTiterGlo 48 h; series mostly up to 46.1 µM
Summary of the method: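 Compounds are tested for their ability to restore growth of mitochondrial fusion-defective yeast strains at non-permissive 37C in YPEG medium over 48 hours. Viability is quantified by luciferase luminescence.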
Potency is the fitted concentration of half-maximal effect.

**Q.** With `Cc1cc(C(=O)N(C)C)sc1-c1ccccc1` as the molecule, how does the Potency read?
**A.** inconclusive: 17.8 µM [activator, single point]

**Q.** For `COC(=O)[C@@]12CCCCN1[C@H](c1ccc(-c3ccc(F)cc3)c(OC)c1)[C@@H]1C(=O)N(C)C(=O)[C@@H]12`, which Potency is on record?
**A.** inconclusive: 15.8 µM [activator, partial curve]

**Q.** Which Potency does the source give for `O=C(c1ccccc1NS(=O)(=O)c1ccc(Cl)cc1)N1CCc2ccccc21` here?
**A.** inconclusive: 14.1 µM [activator, partial curve]

**Q.** Which Potency does the source give for `CCOC(=O)c1c(NC(NC(C)=O)C(Cl)(Cl)Cl)sc2c1CCCC2` (configuration not stated) here?
**A.** inconclusive: 35.5 µM [activator, single point]

**Q.** With `COc1ccc(Cc2nn3c(-c4ccccc4OC)nnc3s2)cc1` as the molecule, how does the Potency read?
**A.** inactive

**Q.** With `O=C(CSc1nnnn1C1CCCCC1)Nc1nc2c(s1)CCCC2` as the molecule, how does the Potency read?
**A.** inconclusive: 35.5 µM [activator, single point]

**Q.** With `CCCCn1c(N2CCC(Cc3ccccc3)CC2)nc2c1c(=O)[nH]c(=O)n2C` as the molecule, how does the Potency read?
**A.** inconclusive: 22.4 µM [activator, single point]

**Q.** For `CC(/C=N/NC(=O)CSc1nnc(SCc2ccccc2)s1)=C\c1ccco1`, which Potency is on record?
**A.** inconclusive: 17.8 µM [activator, single point]

**Q.** Which Potency does the source give for `COc1ccc2nc(Nc3nc4ccc(NC(C)=O)cc4s3)sc2c1` here?
**A.** inconclusive: 35.5 µM [activator, single point]

**Q.** With `Cc1cccc(N2CCN(C(=O)/C=C/c3cccs3)CC2)c1C` as the molecule, how does the Potency read?
**A.** inconclusive: 31.6 µM [activator, single point]

**Q.** Which Potency does the source give for `CCCCCCSc1ccc([C@@H]2[C@@H]3C(=O)N(C)C(=O)[C@@H]3[C@]3(C(=O)OC)CCCCN23)cc1OC` here?
**A.** inconclusive: 20 µM [activator, single point]

**Q.** Which Potency does the source give for `CCOc1ccccc1NC(=O)c1ccc2c(=O)n3c(nc2c1)CCCCC3` here?
**A.** inconclusive: 35.5 µM [activator, single point]

**Q.** Which Potency does the source give for `Cc1ccc(S(=O)(=O)CCC(=O)Nc2nc(-c3ccccn3)cs2)cc1` here?
**A.** inactive

**Q.** For `S=C(Nc1ccc2nsnc2c1)NC1CCCCC1`, which Potency is on record?
**A.** inconclusive: 17.8 µM [activator, partial curve]

**Q.** Which Potency does the source give for `Cn1cc(Br)c(C(=O)N/N=C/c2cccc(OC3CSC3)c2)n1` here?
**A.** inconclusive: 7.08 µM [activator, partial curve]

**Q.** Which Potency does the source give for `O=c1[nH]c(=O)n(Cc2ccco2)c2c1C(C(F)(F)F)(C(F)(F)F)N=C(CCC1CCCCC1)N2` here?
**A.** inactive

**Q.** With `Cc1ccc(CN2CCN(/N=C/c3cccn3C)CC2)c(C)c1` as the molecule, how does the Potency read?
**A.** inconclusive: 5.62 µM [activator, single point]

**Q.** With `Cc1nn(-c2ccccc2)c(Cl)c1/C=C/C(=O)c1ccc(O)cc1` as the molecule, how does the Potency read?
**A.** inconclusive: 6.31 µM [activator, partial curve]

**Q.** With `CS(=O)(=O)c1ccccc1-c1nnc(NC(=O)c2ccco2)o1` as the molecule, how does the Potency read?
**A.** inactive

**Q.** For `CN(C)c1ccc(/C=C(\C#N)C(=O)OCC(=O)N(C)C2CCS(=O)(=O)C2)cc1` (configuration not stated), which Potency is on record?
**A.** inconclusive: 6.31 µM [activator, single point]

**Q.** For `O=C(O/N=C(\c1ccccc1)c1ccccn1)c1ccc(Cl)c(Cl)c1`, which Potency is on record?
**A.** inconclusive: 10 µM [activator, partial curve]

**Q.** For `N#Cc1ccsc1NC(=O)c1ccccn1`, which Potency is on record?
**A.** inactive

**Q.** Which Potency does the source give for `CCN(CC)CCCN(Cc1cc2cc(OC)ccc2[nH]c1=O)C(=O)Nc1ccccc1` here?
**A.** inactive

**Q.** Which Potency does the source give for `COc1ccc(Cl)cc1C(=O)O/N=C(\N)c1ccncc1` here?
**A.** inactive

**Q.** Which Potency does the source give for `CC1CC(C)CN(CC(=O)N2CCCc3c2c(=O)oc2ccc(OCc4ccccc4)cc32)C1` (configuration not stated) here?
**A.** inconclusive: 35.5 µM [activator, single point]

**Q.** For `Cc1ccc(NC(=O)CCc2c(C)nn(-c3ccc(N4CCCCC4)nn3)c2C)cc1`, which Potency is on record?
**A.** inconclusive: 35.5 µM [activator, partial curve, poor fit]

**Q.** With `O=C(NCc1cccc(Cl)c1)C1CCN(S(=O)(=O)c2ccc(F)cc2)CC1` as the molecule, how does the Potency read?
**A.** inconclusive: 11.2 µM [activator, partial curve]

**Q.** Which Potency does the source give for `CCCc1nc2ccccc2c(=O)n1CC(=O)c1ccc(OC)cc1` here?
**A.** inconclusive: 3.16 µM [activator, partial curve]

**Q.** For `O=C(NC1CCCCC1)c1ccc(CNc2nc(=S)[nH]c3ccccc23)cc1`, which Potency is on record?
**A.** inactive

**Q.** Which Potency does the source give for `Cc1ccc(CN2CCc3c(OCC(=O)Nc4cc(C)ccc4C)cccc3C2=O)cc1` here?
**A.** inconclusive: 22.4 µM [activator, single point]

**Q.** For `CN1/C(=C\C(=O)c2cccs2)C(C)(C)c2ccccc21`, which Potency is on record?
**A.** inconclusive: 11.2 µM [activator, partial curve]

**Q.** With `COc1cc(NC(=O)COC(=O)Cc2ccc(-c3ccccc3)cc2)cc(OC)c1` as the molecule, how does the Potency read?
**A.** inconclusive: 35.5 µM [activator, single point]

**Q.** Which Potency does the source give for `Cc1c(C(=O)c2ccc(Cl)cc2Cl)cnc2cc3c(cc12)OCO3` here?
**A.** active: 12.6 µM

**Q.** For `CCOC(=O)c1c(-c2ccc(OC)cc2)csc1/N=C/C1=C(O)CCCC1=O`, which Potency is on record?
**A.** inconclusive: 17.8 µM [activator, single point]

**Q.** For `CC(Oc1cccc(Cl)c1)C(=O)Nc1nc(-c2ccccn2)cs1` (configuration not stated), which Potency is on record?
**A.** inconclusive: 22.4 µM [activator, single point]

**Q.** Which Potency does the source give for `Nc1nc(CSC(=S)N2CCN(c3ccccc3)CC2)nc(Nc2ccc(F)cc2)n1` here?
**A.** inconclusive: 3.55 µM [activator, partial curve]

**Q.** With `COCn1c(COc2ccc3ccccc3c2)nc2ccccc21` as the molecule, how does the Potency read?
**A.** inconclusive: 31.6 µM [activator, single point]

**Q.** With `Cc1ccc(NC(=O)CCc2nnc3ccc(N4CCC(C)CC4)nn23)nc1` as the molecule, how does the Potency read?
**A.** inconclusive: 3.55 µM [activator, partial curve]

**Q.** With `Cc1c(C(=O)N(Cc2ccc(Cl)cc2)C2CCS(=O)(=O)C2)oc2ccccc12` (configuration not stated) as the molecule, how does the Potency read?
**A.** active: 14.1 µM

**Q.** Which Potency does the source give for `O=C(CSc1cccc2cccc(Cl)c12)NCc1cccs1` here?
**A.** inconclusive: 22.4 µM [activator, single point]

**Q.** Which Potency does the source give for `CCCC(=O)Nc1sc(Cc2ccccc2)c(C)c1C(N)=O` here?
**A.** inconclusive: 2.24 µM [activator, partial curve]

**Q.** With `N#Cc1nc(-c2cccc(Cl)c2)oc1NCc1cccnc1` as the molecule, how does the Potency read?
**A.** inactive
